No constants are given. Whether binding was seen depends on the method and setting. In cells and extracts the contact can be indirect. Some results given as binding are weak or reduced against the parent protein; the word gives no strength. Sequences can lack the tags named with a protein.
B1: myc-tagged full-length ZAP mutant Zm3 (protein, UniProt Q8K3Y6 1-776)
chain: MAAAAVCCFITKILCAHGGRMTLEELLGEIRLPEAQLYELLETAGPDRFVLLETGGQAGITRSVVATTRARVCRRKYCQRPCDSLHLCKLNLLGRCHYAQSQRNLCKYSHDVLSEQNFQILKNHELSGLNQEELACLLVQSDPFFLPEICKSYKGEGRKQTCGQPQPCERLHICEHFTRGNCSYLNCLRSHNLMDRKVLTIMREHGLSPDVVQNIQDICNNKHARRNPPGTRAAHPHRRGGAHRDRSKSRDRFLHNSLEFLSPVVSPLGSGPPSPDVTSCKDSLEDVSVDVTQKFKYLGTHDRAQLSPVSSKAAGVQGPSQMRASQEFSEDGNLDDIFSRNRSDSSSSRASAAKVAQRNEAVAMKMGMEVKGKKEAPDIDRVPFLNSYIDGVTMEKASVSGIPGKKFTANDLENLLLLNDTWKNVAKPQDLQTTGRITDSGQDKAFLQNKYGGNPVWASASTHNAPNGSSQIMDETPNVSKSSTSGFAIKPAIAGGKEAVYSGVQSPRSQVLAVPGEATTPVQSNRLPQSPLSSSSHRAAASGSPGKNSTHTSVSPAIESSRMTSDPDEYLLRYILNPLFRMDNHGPKEICQDHLYKGCQQSHCDRSHFHLPYRWQMFVYTTWRDFQDMESIEQAYCDPHVELILIENHQINFQKMTCDSYPIRRLSTPSYEEKPLSAVFATKWIWYWKNEFNEYIQYGNESPGHTSSDINSAYLESFFQSCPRGVLPFQAGSQKYELSFQGMIQTNIASKTQRHVVRRPVFVSSNDVEQKRRGPE
B2: myc-tagged full-length ZAP mutant Zm153 (protein, UniProt Q8K3Y6 1-776)
chain: MADPGVCCFITKILCAHGGRMTLEELLGEIRLPEAQLYELLETAGPDRFVLLETGGQAGITRSVVATTRARVCRRKYCQRPCDSLHLCKLNLLGRCHYAQSQRNLCKYSHDVLSEQNFQILKNHELSGLNQEELACLLVQSDPFFLPEICKSAAAEGRKQTCGQPQPCERLHICEHFTRGNCSYLNCLRSHNLMDRKVLTIMREHGLSPDVVQNIQDICNNKHARRNPPGTRAAHPHRRGGAHRDRSKSRDRFLHNSLEFLSPVVSPLGSGPPSPDVTSCKDSLEDVSVDVTQKFKYLGTHDRAQLSPVSSKAAGVQGPSQMRASQEFSEDGNLDDIFSRNRSDSSSSRASAAKVAQRNEAVAMKMGMEVKGKKEAPDIDRVPFLNSYIDGVTMEKASVSGIPGKKFTANDLENLLLLNDTWKNVAKPQDLQTTGRITDSGQDKAFLQNKYGGNPVWASASTHNAPNGSSQIMDETPNVSKSSTSGFAIKPAIAGGKEAVYSGVQSPRSQVLAVPGEATTPVQSNRLPQSPLSSSSHRAAASGSPGKNSTHTSVSPAIESSRMTSDPDEYLLRYILNPLFRMDNHGPKEICQDHLYKGCQQSHCDRSHFHLPYRWQMFVYTTWRDFQDMESIEQAYCDPHVELILIENHQINFQKMTCDSYPIRRLSTPSYEEKPLSAVFATKWIWYWKNEFNEYIQYGNESPGHTSSDINSAYLESFFQSCPRGVLPFQAGSQKYELSFQGMIQTNIASKTQRHVVRRPVFVSSNDVEQKRRGPE
B3: myc-tagged full-length ZAP (wild type) (protein, UniProt Q8K3Y6 1-776)
chain: MADPGVCCFITKILCAHGGRMTLEELLGEIRLPEAQLYELLETAGPDRFVLLETGGQAGITRSVVATTRARVCRRKYCQRPCDSLHLCKLNLLGRCHYAQSQRNLCKYSHDVLSEQNFQILKNHELSGLNQEELACLLVQSDPFFLPEICKSYKGEGRKQTCGQPQPCERLHICEHFTRGNCSYLNCLRSHNLMDRKVLTIMREHGLSPDVVQNIQDICNNKHARRNPPGTRAAHPHRRGGAHRDRSKSRDRFLHNSLEFLSPVVSPLGSGPPSPDVTSCKDSLEDVSVDVTQKFKYLGTHDRAQLSPVSSKAAGVQGPSQMRASQEFSEDGNLDDIFSRNRSDSSSSRASAAKVAQRNEAVAMKMGMEVKGKKEAPDIDRVPFLNSYIDGVTMEKASVSGIPGKKFTANDLENLLLLNDTWKNVAKPQDLQTTGRITDSGQDKAFLQNKYGGNPVWASASTHNAPNGSSQIMDETPNVSKSSTSGFAIKPAIAGGKEAVYSGVQSPRSQVLAVPGEATTPVQSNRLPQSPLSSSSHRAAASGSPGKNSTHTSVSPAIESSRMTSDPDEYLLRYILNPLFRMDNHGPKEICQDHLYKGCQQSHCDRSHFHLPYRWQMFVYTTWRDFQDMESIEQAYCDPHVELILIENHQINFQKMTCDSYPIRRLSTPSYEEKPLSAVFATKWIWYWKNEFNEYIQYGNESPGHTSSDINSAYLESFFQSCPRGVLPFQAGSQKYELSFQGMIQTNIASKTQRHVVRRPVFVSSNDVEQKRRGPE
B4: myc-tagged full-length ZAP mutant Zm13 (protein, UniProt Q8K3Y6 1-776)
chain: MADPGVCCFITKAAAAHGGRMTLEELLGEIRLPEAQLYELLETAGPDRFVLLETGGQAGITRSVVATTRARVCRRKYCQRPCDSLHLCKLNLLGRCHYAQSQRNLCKYSHDVLSEQNFQILKNHELSGLNQEELACLLVQSDPFFLPEICKSYKGEGRKQTCGQPQPCERLHICEHFTRGNCSYLNCLRSHNLMDRKVLTIMREHGLSPDVVQNIQDICNNKHARRNPPGTRAAHPHRRGGAHRDRSKSRDRFLHNSLEFLSPVVSPLGSGPPSPDVTSCKDSLEDVSVDVTQKFKYLGTHDRAQLSPVSSKAAGVQGPSQMRASQEFSEDGNLDDIFSRNRSDSSSSRASAAKVAQRNEAVAMKMGMEVKGKKEAPDIDRVPFLNSYIDGVTMEKASVSGIPGKKFTANDLENLLLLNDTWKNVAKPQDLQTTGRITDSGQDKAFLQNKYGGNPVWASASTHNAPNGSSQIMDETPNVSKSSTSGFAIKPAIAGGKEAVYSGVQSPRSQVLAVPGEATTPVQSNRLPQSPLSSSSHRAAASGSPGKNSTHTSVSPAIESSRMTSDPDEYLLRYILNPLFRMDNHGPKEICQDHLYKGCQQSHCDRSHFHLPYRWQMFVYTTWRDFQDMESIEQAYCDPHVELILIENHQINFQKMTCDSYPIRRLSTPSYEEKPLSAVFATKWIWYWKNEFNEYIQYGNESPGHTSSDINSAYLESFFQSCPRGVLPFQAGSQKYELSFQGMIQTNIASKTQRHVVRRPVFVSSNDVEQKRRGPE
B5: myc-tagged full-length ZAP mutant Zm63 (protein, UniProt Q8K3Y6 1-776)
chain: MADPGVCCFITKILCAHGGRMTLEELLGEIRLPEAQLYELLETAGPDRFVLLETGGQAGITRAAAATTRARVCRRKYCQRPCDSLHLCKLNLLGRCHYAQSQRNLCKYSHDVLSEQNFQILKNHELSGLNQEELACLLVQSDPFFLPEICKSYKGEGRKQTCGQPQPCERLHICEHFTRGNCSYLNCLRSHNLMDRKVLTIMREHGLSPDVVQNIQDICNNKHARRNPPGTRAAHPHRRGGAHRDRSKSRDRFLHNSLEFLSPVVSPLGSGPPSPDVTSCKDSLEDVSVDVTQKFKYLGTHDRAQLSPVSSKAAGVQGPSQMRASQEFSEDGNLDDIFSRNRSDSSSSRASAAKVAQRNEAVAMKMGMEVKGKKEAPDIDRVPFLNSYIDGVTMEKASVSGIPGKKFTANDLENLLLLNDTWKNVAKPQDLQTTGRITDSGQDKAFLQNKYGGNPVWASASTHNAPNGSSQIMDETPNVSKSSTSGFAIKPAIAGGKEAVYSGVQSPRSQVLAVPGEATTPVQSNRLPQSPLSSSSHRAAASGSPGKNSTHTSVSPAIESSRMTSDPDEYLLRYILNPLFRMDNHGPKEICQDHLYKGCQQSHCDRSHFHLPYRWQMFVYTTWRDFQDMESIEQAYCDPHVELILIENHQINFQKMTCDSYPIRRLSTPSYEEKPLSAVFATKWIWYWKNEFNEYIQYGNESPGHTSSDINSAYLESFFQSCPRGVLPFQAGSQKYELSFQGMIQTNIASKTQRHVVRRPVFVSSNDVEQKRRGPE
B6: myc-tagged full-length ZAP mutant Zm93 (protein, UniProt Q8K3Y6 1-776)
chain: MADPGVCCFITKILCAHGGRMTLEELLGEIRLPEAQLYELLETAGPDRFVLLETGGQAGITRSVVATTRARVCRRKYCQRPCDSLHLCKLNLAAACHYAQSQRNLCKYSHDVLSEQNFQILKNHELSGLNQEELACLLVQSDPFFLPEICKSYKGEGRKQTCGQPQPCERLHICEHFTRGNCSYLNCLRSHNLMDRKVLTIMREHGLSPDVVQNIQDICNNKHARRNPPGTRAAHPHRRGGAHRDRSKSRDRFLHNSLEFLSPVVSPLGSGPPSPDVTSCKDSLEDVSVDVTQKFKYLGTHDRAQLSPVSSKAAGVQGPSQMRASQEFSEDGNLDDIFSRNRSDSSSSRASAAKVAQRNEAVAMKMGMEVKGKKEAPDIDRVPFLNSYIDGVTMEKASVSGIPGKKFTANDLENLLLLNDTWKNVAKPQDLQTTGRITDSGQDKAFLQNKYGGNPVWASASTHNAPNGSSQIMDETPNVSKSSTSGFAIKPAIAGGKEAVYSGVQSPRSQVLAVPGEATTPVQSNRLPQSPLSSSSHRAAASGSPGKNSTHTSVSPAIESSRMTSDPDEYLLRYILNPLFRMDNHGPKEICQDHLYKGCQQSHCDRSHFHLPYRWQMFVYTTWRDFQDMESIEQAYCDPHVELILIENHQINFQKMTCDSYPIRRLSTPSYEEKPLSAVFATKWIWYWKNEFNEYIQYGNESPGHTSSDINSAYLESFFQSCPRGVLPFQAGSQKYELSFQGMIQTNIASKTQRHVVRRPVFVSSNDVEQKRRGPE
B7: myc-tagged full-length ZAP mutant Zm103 (protein, UniProt Q8K3Y6 1-776)
chain: MADPGVCCFITKILCAHGGRMTLEELLGEIRLPEAQLYELLETAGPDRFVLLETGGQAGITRSVVATTRARVCRRKYCQRPCDSLHLCKLNLLGRCHYAQSQAAACKYSHDVLSEQNFQILKNHELSGLNQEELACLLVQSDPFFLPEICKSYKGEGRKQTCGQPQPCERLHICEHFTRGNCSYLNCLRSHNLMDRKVLTIMREHGLSPDVVQNIQDICNNKHARRNPPGTRAAHPHRRGGAHRDRSKSRDRFLHNSLEFLSPVVSPLGSGPPSPDVTSCKDSLEDVSVDVTQKFKYLGTHDRAQLSPVSSKAAGVQGPSQMRASQEFSEDGNLDDIFSRNRSDSSSSRASAAKVAQRNEAVAMKMGMEVKGKKEAPDIDRVPFLNSYIDGVTMEKASVSGIPGKKFTANDLENLLLLNDTWKNVAKPQDLQTTGRITDSGQDKAFLQNKYGGNPVWASASTHNAPNGSSQIMDETPNVSKSSTSGFAIKPAIAGGKEAVYSGVQSPRSQVLAVPGEATTPVQSNRLPQSPLSSSSHRAAASGSPGKNSTHTSVSPAIESSRMTSDPDEYLLRYILNPLFRMDNHGPKEICQDHLYKGCQQSHCDRSHFHLPYRWQMFVYTTWRDFQDMESIEQAYCDPHVELILIENHQINFQKMTCDSYPIRRLSTPSYEEKPLSAVFATKWIWYWKNEFNEYIQYGNESPGHTSSDINSAYLESFFQSCPRGVLPFQAGSQKYELSFQGMIQTNIASKTQRHVVRRPVFVSSNDVEQKRRGPE

Chains of the proteins cited; added tags and fusions are not shown.
UniProt Q9NQT4: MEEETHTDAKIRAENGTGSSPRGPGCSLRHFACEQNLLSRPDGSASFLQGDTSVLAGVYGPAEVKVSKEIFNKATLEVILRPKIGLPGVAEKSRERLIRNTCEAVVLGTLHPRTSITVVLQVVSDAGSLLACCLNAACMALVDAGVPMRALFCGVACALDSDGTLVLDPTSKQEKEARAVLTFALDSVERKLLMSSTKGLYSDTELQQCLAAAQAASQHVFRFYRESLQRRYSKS

Molecular target: endogenous exosome component Rrp46 (human (endogenous in 293TRex)) (UniProt Q9NQT4)
Test: co-IP; endogenous Rrp46 immunoprecipitated with rabbit anti-hRrp46p and proteinG plus-agarose from lysates of cells expressing myc-tagged ZAP proteins; lysis buffer B (30 mM Hepes pH7.6, 100 mM NaCl, 0.5% NP-40) with 100 ug/ml RNase A; 4°C, 2 h; Western blot with anti-myc; pre-immune serum as control

binding | Binder
binds | B1
binds | B2
binds | B3
binds | B4
binds | B5
binds | B6
binds | B7

Reference: article PMC2847535
